Experimental data: article doi:10.1101/2020.04.14.041293
Results are given in words; binding and its absence hold for the method and conditions named. In cells and extracts the contact can be indirect. Some entries that bind do so weakly or less than the wild type. For some assays here: Where a sequence is shown, tags or fusion partners need not be part of it.

Sequences of proteins named here, by UniProt entry; tags and fusion partners are left off.
UniProt Q12778: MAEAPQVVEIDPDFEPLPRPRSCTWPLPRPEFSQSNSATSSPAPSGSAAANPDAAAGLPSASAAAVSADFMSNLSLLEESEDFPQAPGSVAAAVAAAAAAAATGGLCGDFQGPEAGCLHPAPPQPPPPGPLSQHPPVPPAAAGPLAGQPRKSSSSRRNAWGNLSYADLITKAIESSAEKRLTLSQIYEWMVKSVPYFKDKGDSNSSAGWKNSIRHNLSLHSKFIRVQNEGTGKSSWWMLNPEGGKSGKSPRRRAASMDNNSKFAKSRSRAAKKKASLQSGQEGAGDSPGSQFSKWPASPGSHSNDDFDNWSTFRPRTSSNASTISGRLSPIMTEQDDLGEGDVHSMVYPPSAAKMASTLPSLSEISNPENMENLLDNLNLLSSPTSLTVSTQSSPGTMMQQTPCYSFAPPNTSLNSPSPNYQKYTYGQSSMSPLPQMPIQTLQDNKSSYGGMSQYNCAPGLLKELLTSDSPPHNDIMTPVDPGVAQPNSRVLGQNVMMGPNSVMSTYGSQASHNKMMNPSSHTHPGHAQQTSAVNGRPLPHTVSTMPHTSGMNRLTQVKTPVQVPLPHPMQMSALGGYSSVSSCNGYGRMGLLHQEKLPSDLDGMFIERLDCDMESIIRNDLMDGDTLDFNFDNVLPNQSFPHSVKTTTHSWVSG
UniProt Q14653: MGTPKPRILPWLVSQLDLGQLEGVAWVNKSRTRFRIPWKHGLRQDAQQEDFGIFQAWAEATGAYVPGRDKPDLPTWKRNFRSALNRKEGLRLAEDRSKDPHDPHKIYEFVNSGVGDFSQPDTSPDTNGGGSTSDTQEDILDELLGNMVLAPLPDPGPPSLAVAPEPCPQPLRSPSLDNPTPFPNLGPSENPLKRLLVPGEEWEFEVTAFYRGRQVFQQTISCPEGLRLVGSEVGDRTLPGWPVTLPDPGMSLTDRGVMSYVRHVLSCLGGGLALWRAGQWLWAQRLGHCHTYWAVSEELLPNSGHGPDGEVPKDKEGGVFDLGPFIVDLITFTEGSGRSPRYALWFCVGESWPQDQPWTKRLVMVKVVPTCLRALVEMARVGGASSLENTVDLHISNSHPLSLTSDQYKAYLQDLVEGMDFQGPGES

Columns and labels:
[1] = molecular target: T1, Flag-TRAF2 (UniProt Q12933); assay: co-IP
T1 sequence: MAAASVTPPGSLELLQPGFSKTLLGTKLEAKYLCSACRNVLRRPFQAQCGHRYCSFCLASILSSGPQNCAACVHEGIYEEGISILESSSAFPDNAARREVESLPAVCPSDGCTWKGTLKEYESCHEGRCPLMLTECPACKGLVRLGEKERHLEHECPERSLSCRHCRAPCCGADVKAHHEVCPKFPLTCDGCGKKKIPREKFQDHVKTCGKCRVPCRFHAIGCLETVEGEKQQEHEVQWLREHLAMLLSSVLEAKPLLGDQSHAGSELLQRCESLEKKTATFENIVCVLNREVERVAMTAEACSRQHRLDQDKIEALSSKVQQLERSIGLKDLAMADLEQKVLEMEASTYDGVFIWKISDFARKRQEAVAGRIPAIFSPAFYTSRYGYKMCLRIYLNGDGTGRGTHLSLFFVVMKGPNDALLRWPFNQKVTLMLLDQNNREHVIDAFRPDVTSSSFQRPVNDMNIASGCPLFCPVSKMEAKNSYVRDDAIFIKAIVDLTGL

[2] = molecular target: Flag-FoxO1 (UniProt Q12778); assay: co-IP

| binding [1] | Substance | binding [2] |
| --- | --- | --- |
| no binding | Myc-FoxO1 (from UniProt Q12778 1-655) |  |
|  | endogenous IRF3 (from UniProt Q14653 1-427) | binds |
